This is an account of results in PubChem BioAssay AID445 (National Center for Advancing Translational Sciences (NCATS), 2006).

The list shows a part of the results. Further columns of the screen follow, without active or inactive calls. Most of these compounds were active or inconclusive in the main read-out, so they are no random draw. Words in brackets tell the shape of the fitted curve; partial curves, single points and poor fits give uncertain potencies.

The test in a line: IkB Signaling. To be noted: ABC-DLBCL IkBa-CBG/CBR dual luciferase ratio (green luciferase fused to IkBa over red control in OCI-Ly3 lymphoma cells), 4 h. The essentials: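 In this assay, an IκBα–CBG68 fusion accumulates when IKK-driven degradation is blocked; native CBR normalizes for cell number. OCI-Ly3 cells were treated 4 h with compound and doxycycline, then green and red light read after Chroma-Glo addition.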
The mark [1] stands for this setting: measured here: control luc red channel unless noted.

A word on the AC50: it is the concentration giving half of the maximal activity seen. As to `COCC(C)n1c(C)cc(C(=O)CSc2nc3ccccc3c(=O)[nH]2)c1C` (stereo unspecified), the AC50 under setting [1] is 15.8 µM [falling, partial curve].

Turning to `c1ccc2c(c1)oc1c(N3CCN(Cc4ccc5c(c4)OCO5)CC3)ncnc12`, the half-maximal activity concentration (AC50) under setting [1] is 6.31 µM [falling, partial curve]. Still for that read-out and setting: the figure for `O=c1c2ccccc2n2c(-c3ccccc3F)nnc2n1CCc1ccccc1` is 12.6 µM [falling, partial curve]; for `COc1ccc(C(=O)Cn2c(Br)nc3c2c(=O)n(C)c(=O)n3C)cc1` it is 39.8 µM [falling, single point]. On the same count and under the same terms, in the case of `COc1cc(OC)c(N(C)C(=O)c2cc3c(=O)oc4ccccc4c3s2)cc1Cl` it was 31.6 µM [falling, single point]; in that of `Cc1ccc(-n2nc(C(=O)N(C)Cc3ccccc3)c3c4ccccc4n(C)c3c2=O)cc1`, 3.16 µM [falling, full curve]; in that of `Cc1ccc(C(=O)N(c2ccc(C)cc2)S(=O)(=O)c2ccc(Cl)cc2)cc1`, 3.98 µM [falling, full curve].

For the molecule `COCCn1c(C)cc(C(=O)COC(=O)c2n[nH]c3ccccc23)c1C`, under setting [1], the AC50 is 2.51 µM [falling, partial curve].

On to `CCc1ccc(N2CSC3=C(C#N)C(c4cccs4)CC(=O)N3C2)cc1` (stereo unspecified), for which the AC50 under setting [1] is 10 µM [falling, partial curve]. Same read-out and setting: in the case of `O=C(CCC1N=C2c3ccccc3N=C(SCC(=O)Nc3ccc(F)cc3)N2C1=O)NCc1cccs1` (stereo unspecified) it was 10 µM [falling, partial curve]; in that of `Cc1ccccc1C(=O)N(Cc1ccc(N(C)C)cc1)CC1CCCO1` (stereo unspecified), 25.1 µM [falling, single point]; in that of `CCOC(=O)c1noc2ncnc(NCc3ccccc3OC)c12`, 25.1 µM [falling, partial curve, poor fit]. Still for that read-out and setting: in the case of `COc1ccccc1NC(=O)CSC1=Nc2ccccc2C2=NC(CC(=O)NCc3ccc4c(c3)OCO4)C(=O)N12` (stereo unspecified) it was 25.1 µM [falling, single point]; in that of `COC(=O)c1ccccc1NC(=O)C1CCCN(c2ncnc3onc(C)c23)C1` (stereo unspecified), 3.16 µM [falling, partial curve]. The same measure, in the same setting: the figure for `Cn1cccc1C(=O)NC(=O)COC(=O)Cc1coc2ccc3ccccc3c12` is 25.1 µM [falling, partial curve]. On to `CC(NS(=O)(=O)c1ccccc1)C(c1cccs1)N1CCN(c2ccccc2)CC1` (stereo unspecified), for which the half-maximal activity concentration (AC50) under setting [1] was 15.8 µM [falling, partial curve]. On the same count and under the same terms, in the case of `COCc1c(C(=O)OCC(=O)N2c3ccccc3CC2C)oc2ccccc12` (stereo unspecified) it was 31.6 µM [falling, partial curve]. Still for that read-out and setting: the figure for `O=C(Cn1c(=O)nc(-c2ccccc2)c2cc(Cl)ccc21)NCc1ccc(Cl)cc1` is 15.8 µM [falling, partial curve]; for `O=C(Nc1cnn(Cc2ccc(Cl)cc2Cl)c1)c1noc2c1CCc1ccccc1-2` it is 7.94 µM [falling, full curve]; for `COc1ccc(C(CC(=O)Nc2cc(OC)c(OC)c(OC)c2)N2Cc3ccccc3C2=O)cc1` (stereo unspecified) it is 10 µM [falling, partial curve]. The same measure, in the same setting: the figure for `COc1ccc(CCNS(=O)(=O)c2cc(-c3onc(C)c3C)ccc2OC)cc1OC` is 2.51 µM [rising, partial curve]. For the molecule `Cc1ccc(C)c(Nc2nn3c(=O)c4cc5c(cc4nc3s2)OCO5)c1`, the AC50 under setting [1] was 10 µM [falling, partial curve]. The same measure, in the same setting: the figure for `CCc1ccc(NC(=O)CSc2nc(=O)n(Cc3ccncc3)c3c2CCC3)cc1` is 25.1 µM [falling, partial curve]; for `Cc1cc2c(cc1S(=O)(=O)CCC(=O)N1CCCCC1C)OCC(=O)N2` (stereo unspecified) it is 25.1 µM [falling, partial curve]; for `CCCCN(C)CCNC(=O)CN1C(=O)CSc2ccc(S(=O)(=O)N3CCCCC3)cc21` it is 31.6 µM [falling, single point]. The same measure, in the same setting: in the case of `CCOC(=O)N1CCc2c(sc(NCc3cccs3)c2C(=O)Nc2ccc(OC)cc2OC)C1` it was 20 µM [falling, single point]. Still for that read-out and setting: the figure for `COc1ccccc1N1CCN(S(=O)(=O)CCNC(=O)Cc2ccc(Cl)cc2)CC1` is 39.8 µM [falling, single point]. For `COc1ccc(-c2noc(C3CCCN(C(=O)c4ccccc4OC)C3)n2)cc1OC` (stereo unspecified), the AC50 under setting [1] was 3.98 µM [falling, partial curve, poor fit].

On to `Oc1ccc(Br)cc1-c1nc2cnccn2c1NC1CCCC1`, for which the half-maximal activity concentration (AC50) under setting [1] was 31.6 µM [falling, single point]. Still for that read-out and setting: in the case of `Cc1ccc(CCNC(=O)c2c[nH]c3ccc(S(=O)(=O)Nc4cccc(C(F)(F)F)c4)cc3c2=O)cc1` it was 5.01 µM [falling, partial curve]; in that of `CCCS(=O)(=O)c1nnnn1-c1cccc(OC)c1`, 2.51 µM [falling, full curve]; in that of `CCC1=C(c2ccc(C)cc2)S(=O)(=O)N=C1N1CCC(C(=O)NCCc2ccc(Cl)cc2)CC1`, 31.6 µM [falling, single point]. On the same count and under the same terms, the figure for `O=S(=O)(NCCOCC(F)(F)F)c1ccc2oc3ccccc3c2c1` is 10 µM [falling, partial curve]. On to `COc1cccc(NC(=O)CSC2=Nc3ccccc3C3=NC(CC(=O)NCc4ccc5c(c4)OCO5)C(=O)N23)c1` (stereo unspecified), for which the AC50 under setting [1] was 12.6 µM [falling, single point]. Same read-out and setting: in the case of `CCCCNC(=O)c1cnc2sc(N3CCCCCC3)nn2c1=O` it was 25.1 µM [rising, partial curve]. Consider `COc1ccc(S(=O)(=O)Nc2ccc(O)c3ccccc23)cc1`, for which the AC50 was 39.8 µM [rising, single point] (measured here: IkB-luc green channel) and 6.31 µM [falling, partial curve] (measured here: control luc red channel). With `COc1ccc(CC(=O)N(Cc2nc(-c3ccc(C)cc3)no2)C(C)C)cc1`, under setting [1], the AC50 was 39.8 µM [falling, single point]. `COc1ccc(C2C(=O)N(C3CCC(C)CC3)CC(=O)N2C2CCCC2)cc1OC` (stereo unspecified): under setting [1], the AC50 was 39.8 µM [falling, partial curve]. Turning to `CCCCOc1ccccc1C(=O)N(Cc1cccc(F)c1)C1CCS(=O)(=O)C1` (stereo unspecified), under setting [1], the AC50 was 25.1 µM [falling, single point].

As for `CCOc1ccc(CCNC(=O)CSc2nnnn2-c2ccc(C)cc2C)cc1OCC`, the AC50 under setting [1] was 39.8 µM [falling, single point].
